Patent US20250215059A1
No constants are given. Whether binding was seen depends on the method and setting. Some results given as binding are weak or reduced against the parent protein; the word gives no strength.

Sequences of proteins named here, by UniProt entry; tags and fusion partners are left off. A change or cut given only in a name is not applied to a line headed by its entry.
UniProt Q9H307: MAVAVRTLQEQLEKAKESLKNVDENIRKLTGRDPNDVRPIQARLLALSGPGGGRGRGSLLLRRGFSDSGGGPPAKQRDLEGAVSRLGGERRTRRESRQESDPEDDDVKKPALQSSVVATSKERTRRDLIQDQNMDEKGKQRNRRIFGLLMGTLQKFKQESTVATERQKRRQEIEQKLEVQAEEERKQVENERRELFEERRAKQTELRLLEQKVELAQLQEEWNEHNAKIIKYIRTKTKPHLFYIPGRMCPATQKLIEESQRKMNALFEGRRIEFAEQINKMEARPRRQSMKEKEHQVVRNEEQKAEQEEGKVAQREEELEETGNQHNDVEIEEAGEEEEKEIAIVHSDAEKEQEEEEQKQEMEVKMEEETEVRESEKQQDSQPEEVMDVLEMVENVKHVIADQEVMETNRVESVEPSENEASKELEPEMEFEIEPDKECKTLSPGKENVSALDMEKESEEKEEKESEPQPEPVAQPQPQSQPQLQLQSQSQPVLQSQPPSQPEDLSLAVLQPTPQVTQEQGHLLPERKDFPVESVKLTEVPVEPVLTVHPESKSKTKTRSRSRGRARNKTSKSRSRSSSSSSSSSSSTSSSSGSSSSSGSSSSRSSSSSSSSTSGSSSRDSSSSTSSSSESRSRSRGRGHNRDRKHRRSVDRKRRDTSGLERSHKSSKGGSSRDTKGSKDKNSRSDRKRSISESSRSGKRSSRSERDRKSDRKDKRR
UniProt O15047: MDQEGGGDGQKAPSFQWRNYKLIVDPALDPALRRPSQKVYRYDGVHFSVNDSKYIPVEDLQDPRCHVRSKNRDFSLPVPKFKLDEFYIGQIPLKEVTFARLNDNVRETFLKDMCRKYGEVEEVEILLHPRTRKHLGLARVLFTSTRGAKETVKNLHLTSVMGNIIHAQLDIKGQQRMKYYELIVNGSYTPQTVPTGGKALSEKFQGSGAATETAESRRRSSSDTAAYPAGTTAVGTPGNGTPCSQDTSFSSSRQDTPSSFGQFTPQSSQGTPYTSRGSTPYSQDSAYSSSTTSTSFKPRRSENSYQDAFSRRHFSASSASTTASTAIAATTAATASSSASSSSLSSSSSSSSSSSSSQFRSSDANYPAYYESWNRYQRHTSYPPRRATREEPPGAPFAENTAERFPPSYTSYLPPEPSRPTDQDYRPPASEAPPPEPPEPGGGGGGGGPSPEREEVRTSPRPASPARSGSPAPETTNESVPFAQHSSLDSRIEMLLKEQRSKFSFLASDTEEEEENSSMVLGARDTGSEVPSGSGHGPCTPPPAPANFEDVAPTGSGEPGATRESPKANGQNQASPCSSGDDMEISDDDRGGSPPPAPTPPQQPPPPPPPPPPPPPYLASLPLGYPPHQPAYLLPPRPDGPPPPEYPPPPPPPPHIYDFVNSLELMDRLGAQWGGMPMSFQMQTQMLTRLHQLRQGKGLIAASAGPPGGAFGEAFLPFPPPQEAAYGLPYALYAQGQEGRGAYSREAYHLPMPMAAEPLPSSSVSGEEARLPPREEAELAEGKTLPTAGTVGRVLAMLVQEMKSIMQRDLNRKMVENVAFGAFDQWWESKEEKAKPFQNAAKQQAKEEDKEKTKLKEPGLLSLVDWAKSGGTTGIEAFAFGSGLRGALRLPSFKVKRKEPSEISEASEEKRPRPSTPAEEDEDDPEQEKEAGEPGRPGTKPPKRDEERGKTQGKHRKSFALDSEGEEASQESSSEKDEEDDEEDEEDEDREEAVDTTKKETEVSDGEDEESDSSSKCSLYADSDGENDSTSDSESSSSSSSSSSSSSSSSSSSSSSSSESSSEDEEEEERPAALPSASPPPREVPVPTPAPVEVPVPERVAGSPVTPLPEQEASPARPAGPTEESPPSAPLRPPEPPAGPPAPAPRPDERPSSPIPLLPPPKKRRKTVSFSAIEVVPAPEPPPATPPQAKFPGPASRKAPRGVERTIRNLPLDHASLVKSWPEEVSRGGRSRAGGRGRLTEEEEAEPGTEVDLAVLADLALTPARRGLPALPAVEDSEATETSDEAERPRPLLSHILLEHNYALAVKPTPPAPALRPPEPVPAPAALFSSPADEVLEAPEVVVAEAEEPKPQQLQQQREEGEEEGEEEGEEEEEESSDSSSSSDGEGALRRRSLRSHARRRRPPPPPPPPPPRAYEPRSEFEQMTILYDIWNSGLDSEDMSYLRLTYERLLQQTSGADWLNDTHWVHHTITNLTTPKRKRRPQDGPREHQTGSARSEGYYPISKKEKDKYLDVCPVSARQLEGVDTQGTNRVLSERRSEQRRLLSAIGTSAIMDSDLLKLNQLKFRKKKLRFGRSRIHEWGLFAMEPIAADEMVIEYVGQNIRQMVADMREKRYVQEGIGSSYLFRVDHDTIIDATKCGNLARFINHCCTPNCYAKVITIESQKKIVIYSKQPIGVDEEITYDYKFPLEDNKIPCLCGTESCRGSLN

Key:
[1] = target: tau aggregates in HEK293 tau biosensor cells (4R repeat domain of tau (K18) with the P301S mutation fused to CFP or YFP, seeded with clarified tau mouse brain homogenate) (UniProt P10636); assay: immunofluorescence
[2] = target: tau aggregates in HEK293 tau biosensor cells (4R repeat domain of tau (K18) with the P301S mutation fused to CFP or YFP, seeded with clarified tau mouse brain homogenate) (UniProt P10636); assay: immunofluorescence in HEK293 tau biosensor cells
[3] = target: tau aggregates in HEK293 tau biosensor cells (4R repeat domain of tau (K18) with the P301S mutation fused to CFP or YFP, seeded with clarified tau mouse brain homogenate) (UniProt P10636); assay: immunofluorescence image

binding [1] | binding [2] | binding [3] | Substance
binds | binds | binds | PNN (Pinin), endogenous in HEK293 tau biosensor cells (from UniProt Q9H307 2-717)
binds | binds | binds | SETD1A, endogenous in HEK293 tau biosensor cells (from UniProt O15047 1-1707)
